Source: the supplement of paper PMC8728848
This is one part of the list.

Key:
Experiment in all cases: glycan array binding signal (z-score within array); higher = stronger binding
Details in all cases: glycan notation: IUPAC condensed, linker removed
[1] = target: Gal(b1-3)[Fuc(a1-4)]GlcNAc(b1-3)Gal(b1-3)[Fuc(a1-4)]GlcNAc
Outline: (§1)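 The binding signal is a Z-score computed within each array. Data were drawn from 3228 arrays in the Consortium for Functional Glycomics database, restricted to those with a known protein sequence. Scores were averaged over arrays of the same protein sequence at different concentrations or buffers, and over linkers, and negative values can be taken as non-binding.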

[2] = target: Gal(b1-3)[Fuc(a1-4)]GlcNAc(b1-3)Gal(b1-4)GlcNAc
Outline: as §1

[3] = target: Gal(b1-3)[Fuc(a1-4)]GlcNAc(b1-3)Gal(b1-4)[Fuc(a1-3)]GlcNAc
Outline: as §1

[4] = target: Gal(b1-3)[Fuc(a1-4)]GlcNAc(b1-6)GalNAc
Outline: as §1

[5] = target: Gal(b1-3)[GlcNAc(b1-6)]GalNAc
Outline: as §1

[6] = target: Gal(b1-3)[Neu5Ac(a2-6)]GalNAc
Outline: as §1

[7] = target: Gal(b1-3)[Neu5Ac(a2-6)]GlcNAc(b1-4)Gal(b1-4)Glc
Outline: as §1

[8] = target: Gal(b1-3)[Neu5Ac(a2-6)]GlcNAc(b1-6)Gal(b1-4)Glc
Outline: as §1

[9] = target: Gal(b1-3)[Neu5Ac(b2-6)]GalNAc
Outline: as §1

Gal(b1-4)Gal = target: Gal(b1-4)Gal
Outline: as §1

[10] = target: Gal(b1-4)GalNAc(a1-3)[Fuc(a1-2)]Gal(b1-4)GlcNAc
Outline: as §1

[11] = target: Gal(b1-4)GalNAc(b1-3)[Fuc(a1-2)]Gal(b1-4)GlcNAc
Outline: as §1

Gal(b1-4)Glc = target: Gal(b1-4)Glc
Outline: as §1

Gal(b1-4)Glc6S = target: Gal(b1-4)Glc6S
Outline: as §1

Gal(b1-4)GlcNAc = target: Gal(b1-4)GlcNAc
Outline: as §1

[12] = target: Gal(b1-4)GlcNAc(a1-6)Gal(b1-4)GlcNAc
Outline: as §1

Gal(b1-4)GlcNAc(b1-2)Man = target: Gal(b1-4)GlcNAc(b1-2)Man
Outline: as §1

[13] = target: Gal(b1-4)GlcNAc(b1-2)Man(a1-3)Man(b1-4)GlcNAc(b1-4)GlcNAc
Outline: as §1

[14] = target: Gal(b1-4)GlcNAc(b1-2)Man(a1-3)[Gal(b1-4)GlcNAc(b1-2)Man(a1-6)]Man(b1-4)GlcNAc(b1-4)GlcNAc
Outline: as §1

[15] = target: Gal(b1-4)GlcNAc(b1-2)Man(a1-3)[Gal(b1-4)GlcNAc(b1-2)Man(a1-6)]Man(b1-4)GlcNAc(b1-4)[Fuc(a1-6)]GlcNAc
Outline: as §1

[16] = target: Gal(b1-4)GlcNAc(b1-2)Man(a1-3)[Gal(b1-4)GlcNAc(b1-2)Man(a1-6)][Gal(b1-4)GlcNAc(b1-4)]Man(b1-4)GlcNAc(b1-4)[Fuc(a1-6)]GlcNAc
Outline: as §1

[17] = target: Gal(b1-4)GlcNAc(b1-2)Man(a1-3)[Gal(b1-4)GlcNAc(b1-2)Man(a1-6)][GlcNAc(b1-4)]Man(b1-4)GlcNAc(b1-4)[Fuc(a1-6)]GlcNAc
Outline: as §1

[18] = target: Gal(b1-4)GlcNAc(b1-2)Man(a1-3)[Gal(b1-4)GlcNAc(b1-2)][GlcNAc(b1-4)]Man(b1-4)GlcNAc(b1-4)GlcNAc
Outline: as §1

[19] = target: Gal(b1-4)GlcNAc(b1-2)Man(a1-3)[GlcNAc(b1-2)Man(a1-6)]Man(b1-4)GlcNAc(b1-4)GlcNAc
Outline: as §1

[20] = target: Gal(b1-4)GlcNAc(b1-2)Man(a1-3)[GlcNAc(b1-4)][Gal(b1-4)GlcNAc(b1-2)Man(a1-6)]Man(b1-4)GlcNAc(b1-4)GlcNAc
Outline: as §1

[21] = target: Gal(b1-4)GlcNAc(b1-2)Man(a1-3)[Man(a1-6)]Man(b1-4)GlcNAc(b1-4)GlcNAc
Outline: as §1

KISKRILTGKK [NK11 (Sus scrofa)]
glycan array binding signal (z-score) [1]: -0.425 | glycan array binding signal (z-score) [2]: 3.41 | glycan array binding signal (z-score) [3]: -0.524 | glycan array binding signal (z-score) [4]: 0.704 | glycan array binding signal (z-score) [5]: -0.651 | glycan array binding signal (z-score) [6]: 1.56 | glycan array binding signal (z-score) [7]: -0.206 | glycan array binding signal (z-score) [8]: -0.305 | glycan array binding signal (z-score) [9]: 0.115 | glycan array binding signal (z-score) (Gal(b1-4)Gal): -0.422 | glycan array binding signal (z-score) [10]: -1.44 | glycan array binding signal (z-score) [11]: -0.195 | glycan array binding signal (z-score) (Gal(b1-4)Glc): -0.144 | glycan array binding signal (z-score) (Gal(b1-4)Glc6S): 0.225 | glycan array binding signal (z-score) (Gal(b1-4)GlcNAc): -0.612 | glycan array binding signal (z-score) [12]: 0.093 | glycan array binding signal (z-score) (Gal(b1-4)GlcNAc(b1-2)Man): -0.259 | glycan array binding signal (z-score) [13]: 0.233 | glycan array binding signal (z-score) [14]: -0.619 | glycan array binding signal (z-score) [15]: -0.25 | glycan array binding signal (z-score) [16]: -0.533 | glycan array binding signal (z-score) [17]: 0.327 | glycan array binding signal (z-score) [18]: -0.144 | glycan array binding signal (z-score) [19]: -0.514 | glycan array binding signal (z-score) [20]: -0.789 | glycan array binding signal (z-score) [21]: 0.009
